For 2 substances, binding results are on record in publication PMC12884772, “Macrophagic Sclerostin Loop2‐ApoER2 Interaction Required by Sclerostin for Cardiovascular Protective Action” (Advanced Science, 2025).

By UniProt entry, the sequences of proteins in these tests, tags left out. Where a name states a change or a piece, a line headed by the entry shows the natural chain unless it says otherwise. Chains listed by the source or under a name are the forms on record and can include a tag or linker. Residues count along the entry.
full-length His-sclerostin (not stated (recombinant human and mouse sclerostin used in the paper)) (Q99P68, residues 24-211): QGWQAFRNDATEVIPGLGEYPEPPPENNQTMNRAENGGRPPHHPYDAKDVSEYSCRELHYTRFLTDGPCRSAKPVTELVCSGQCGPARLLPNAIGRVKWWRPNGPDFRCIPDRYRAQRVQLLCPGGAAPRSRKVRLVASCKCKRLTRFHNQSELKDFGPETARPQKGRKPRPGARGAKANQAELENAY
SOST^loop2m (I94A, G95A, R96A, K98A, W99A) (Q99P68, form named): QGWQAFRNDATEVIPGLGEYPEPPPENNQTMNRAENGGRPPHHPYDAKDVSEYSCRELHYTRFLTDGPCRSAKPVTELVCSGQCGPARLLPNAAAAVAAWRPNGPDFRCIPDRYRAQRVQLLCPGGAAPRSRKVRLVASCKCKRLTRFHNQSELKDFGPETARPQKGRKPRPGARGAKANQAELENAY
SOST-S4 (I94A, G95A, R96A) (Q99P68, form named): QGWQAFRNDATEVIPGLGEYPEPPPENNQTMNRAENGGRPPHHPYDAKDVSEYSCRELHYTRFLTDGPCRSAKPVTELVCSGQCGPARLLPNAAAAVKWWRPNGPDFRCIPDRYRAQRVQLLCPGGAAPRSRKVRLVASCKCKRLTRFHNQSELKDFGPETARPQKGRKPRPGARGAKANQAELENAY
SOST-S5 (V97A, K98A, W99A) (Q99P68, form named): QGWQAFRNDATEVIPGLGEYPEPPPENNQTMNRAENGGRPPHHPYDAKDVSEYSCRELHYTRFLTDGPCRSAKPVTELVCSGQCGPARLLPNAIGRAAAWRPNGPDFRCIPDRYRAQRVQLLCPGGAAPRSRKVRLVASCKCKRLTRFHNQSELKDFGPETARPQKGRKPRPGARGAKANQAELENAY
UniProt Q924X6, residues 29-996: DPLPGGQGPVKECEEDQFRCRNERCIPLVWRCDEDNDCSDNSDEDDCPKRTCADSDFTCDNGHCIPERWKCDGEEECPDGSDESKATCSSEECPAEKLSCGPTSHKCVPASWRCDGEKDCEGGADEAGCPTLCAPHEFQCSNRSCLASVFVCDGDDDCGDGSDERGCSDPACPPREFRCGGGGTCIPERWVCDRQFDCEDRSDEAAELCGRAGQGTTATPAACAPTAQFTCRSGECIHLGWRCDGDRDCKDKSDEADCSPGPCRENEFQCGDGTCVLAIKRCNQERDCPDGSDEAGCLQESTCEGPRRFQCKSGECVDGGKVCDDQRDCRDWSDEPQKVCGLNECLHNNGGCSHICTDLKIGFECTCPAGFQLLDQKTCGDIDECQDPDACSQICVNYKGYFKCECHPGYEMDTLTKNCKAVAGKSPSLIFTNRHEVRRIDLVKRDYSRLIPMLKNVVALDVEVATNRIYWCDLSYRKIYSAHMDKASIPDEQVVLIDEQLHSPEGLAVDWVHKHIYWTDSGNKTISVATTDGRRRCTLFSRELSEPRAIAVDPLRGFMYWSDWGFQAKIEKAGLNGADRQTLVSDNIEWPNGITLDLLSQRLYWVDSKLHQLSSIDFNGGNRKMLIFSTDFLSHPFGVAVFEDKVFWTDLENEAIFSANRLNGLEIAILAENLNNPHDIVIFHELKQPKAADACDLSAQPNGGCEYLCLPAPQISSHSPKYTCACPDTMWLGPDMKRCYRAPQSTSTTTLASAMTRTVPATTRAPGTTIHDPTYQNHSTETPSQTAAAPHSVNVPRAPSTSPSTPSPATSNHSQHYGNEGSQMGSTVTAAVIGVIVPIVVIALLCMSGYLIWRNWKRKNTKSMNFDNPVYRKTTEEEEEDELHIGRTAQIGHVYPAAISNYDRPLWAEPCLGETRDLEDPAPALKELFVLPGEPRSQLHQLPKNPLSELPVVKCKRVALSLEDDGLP

For assay [1], the target named is wild-type SOST (co-immunoprecipitation in RAW264.7) (UniProt Q99P68). The assay can be described thus: co-IP; in RAW264.7 macrophages; which partner was precipitated is not told.
Assay [2] addresses SOST^loop2m (I94A, G95A, R96A, K98A, W99A) (UniProt Q99P68). The description is as above.
Assay [3] deals with full-length His-sclerostin (not stated (recombinant human and mouse sclerostin used in the paper)) (UniProt Q99P68). The assay can be described thus: pull-down; His-tagged sclerostin or loop peptide (6 µg) on Ni-NTA magnetic agarose beads, incubated with 500 µL RAW264.7 cell lysate supernatant overnight at 4 °C; PBS, 20 mM imidazole, pH 8.0; washes with 0.005% Tween 20; blot with anti-FLAG and anti-His; only the target purified.

Assay [4] deals with SOST-S4 (I94A, G95A, R96A) (UniProt Q99P68). The assay is described as above.
In assay [5] the target is SOST-S5 (V97A, K98A, W99A) (UniProt Q99P68). The assay is described as above.

Results are given in words; binding and its absence hold for the method and conditions named. Binding seen in cells or lysates may run through a third protein. Some entries that bind do so weakly or less than the wild type.

For “ApoER2 (co-immunoprecipitation in RAW264.7) (from UniProt Q924X6 29-996) (receptor)”, the values for the binding result in assay [1] and in assay [2] were “binds” and “no binding”, respectively.
Take “FLAG-ApoER2 (from UniProt Q924X6 29-996) (receptor)”: the binding result in assay [3], in assay [4] and in assay [5] was “binds” each time.
